Results published in PMC5520704.
No constants are given. Whether binding was seen depends on the method and setting. Binding seen in cells or lysates may run through a third protein. Binding calls can cover weak binding; strength is not graded here. Sequences can lack the tags named with a protein.

By UniProt entry, the sequences of proteins in these tests, tags left out. Where a name states a change or a piece, a line headed by the entry shows the natural chain unless it says otherwise.
UniProt P06396: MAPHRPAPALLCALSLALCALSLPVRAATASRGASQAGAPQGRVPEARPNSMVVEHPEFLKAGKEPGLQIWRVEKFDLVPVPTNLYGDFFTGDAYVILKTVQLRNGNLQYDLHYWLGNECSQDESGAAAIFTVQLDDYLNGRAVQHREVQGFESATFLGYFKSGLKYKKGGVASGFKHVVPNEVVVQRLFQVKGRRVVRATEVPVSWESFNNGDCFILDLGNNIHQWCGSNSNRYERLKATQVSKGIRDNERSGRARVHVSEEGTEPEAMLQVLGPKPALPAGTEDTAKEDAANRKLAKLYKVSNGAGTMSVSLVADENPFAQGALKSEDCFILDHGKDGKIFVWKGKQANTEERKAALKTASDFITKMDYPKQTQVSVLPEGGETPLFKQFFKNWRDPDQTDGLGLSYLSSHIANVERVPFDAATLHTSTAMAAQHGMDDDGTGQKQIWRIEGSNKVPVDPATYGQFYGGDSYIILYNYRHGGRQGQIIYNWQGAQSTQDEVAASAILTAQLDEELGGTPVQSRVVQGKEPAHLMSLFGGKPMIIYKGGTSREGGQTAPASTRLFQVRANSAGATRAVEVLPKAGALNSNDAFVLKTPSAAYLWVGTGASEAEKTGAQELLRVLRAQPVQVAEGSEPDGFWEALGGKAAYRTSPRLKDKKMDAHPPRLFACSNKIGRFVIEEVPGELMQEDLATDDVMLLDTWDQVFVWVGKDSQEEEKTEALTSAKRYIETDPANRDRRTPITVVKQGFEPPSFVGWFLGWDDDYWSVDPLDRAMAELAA

Target: T1, BASP1 that contains a C-terminal HA tag (UniProt P80723)
T1 sequence: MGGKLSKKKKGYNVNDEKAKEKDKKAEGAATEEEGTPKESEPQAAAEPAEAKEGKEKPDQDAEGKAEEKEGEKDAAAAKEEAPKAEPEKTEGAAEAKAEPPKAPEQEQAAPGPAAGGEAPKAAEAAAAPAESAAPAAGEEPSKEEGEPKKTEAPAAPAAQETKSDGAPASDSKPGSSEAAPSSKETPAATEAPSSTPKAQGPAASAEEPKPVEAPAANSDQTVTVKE
Test: co-IP; anti-HA immunoprecipitation from nuclear extracts of V-K562 and B-K562 cells; immunoblotting for the identified factors

- binding: binds
Substance: gelsolin (from UniProt P06396)
